≈ marks a conversion by molar mass, not a printed value.
Experiments:
physchem [1] = conditions: buffer
Cytochrome P450 3A4 = Cytochrome P450 3A4 (Homo sapiens, UniProt P08684); assay: Inhibition of CYP3A4 in human liver microsomes using midazolam as substrate
physchem [2] = conditions: octanol/water, pH 7.4
Cytochrome P450 2C9 = Cytochrome P450 2C9 (Homo sapiens, UniProt P11712)
Cytochrome P450 2C19 = Cytochrome P450 2C19 (Homo sapiens, UniProt P33261)
[3] = molecular target: Voltage-gated inwardly rectifying potassium channel KCNH2 (Homo sapiens, UniProt Q12809); assay: Inhibition of human ERG expressed in CHO cells
Cytochrome P450 2D6 = Cytochrome P450 2D6 (Homo sapiens, UniProt P10635)

Amino acid sequences for entries named in this document (tags omitted). A change or cut given only in a name is not applied to a line headed by its entry.
UniProt P08684, whole entry: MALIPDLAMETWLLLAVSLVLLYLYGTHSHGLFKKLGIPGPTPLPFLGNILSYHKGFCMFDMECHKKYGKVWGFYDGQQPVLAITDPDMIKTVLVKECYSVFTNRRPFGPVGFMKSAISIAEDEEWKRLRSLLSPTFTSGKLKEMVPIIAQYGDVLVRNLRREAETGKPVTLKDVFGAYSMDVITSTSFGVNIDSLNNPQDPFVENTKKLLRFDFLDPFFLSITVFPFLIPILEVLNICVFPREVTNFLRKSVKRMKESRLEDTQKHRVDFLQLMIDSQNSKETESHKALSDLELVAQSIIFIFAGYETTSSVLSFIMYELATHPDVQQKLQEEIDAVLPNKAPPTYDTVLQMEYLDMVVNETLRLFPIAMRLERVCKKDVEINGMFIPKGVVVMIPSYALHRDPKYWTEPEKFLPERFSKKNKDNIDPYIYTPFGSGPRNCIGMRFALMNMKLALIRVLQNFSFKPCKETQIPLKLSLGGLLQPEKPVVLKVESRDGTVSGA
UniProt P11712, whole entry: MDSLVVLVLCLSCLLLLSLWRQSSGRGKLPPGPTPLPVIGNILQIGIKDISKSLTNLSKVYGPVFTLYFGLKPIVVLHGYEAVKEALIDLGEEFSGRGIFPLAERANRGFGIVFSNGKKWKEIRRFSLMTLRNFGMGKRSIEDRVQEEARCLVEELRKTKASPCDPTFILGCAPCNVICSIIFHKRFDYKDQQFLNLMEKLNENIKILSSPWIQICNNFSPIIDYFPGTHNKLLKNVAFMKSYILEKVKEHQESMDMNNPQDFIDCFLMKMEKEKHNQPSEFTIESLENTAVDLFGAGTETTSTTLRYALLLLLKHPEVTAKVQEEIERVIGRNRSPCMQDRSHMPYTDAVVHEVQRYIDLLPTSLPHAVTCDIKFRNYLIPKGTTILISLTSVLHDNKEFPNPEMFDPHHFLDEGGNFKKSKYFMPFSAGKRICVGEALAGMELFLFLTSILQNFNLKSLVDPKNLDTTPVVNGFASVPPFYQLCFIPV
UniProt P33261, whole entry: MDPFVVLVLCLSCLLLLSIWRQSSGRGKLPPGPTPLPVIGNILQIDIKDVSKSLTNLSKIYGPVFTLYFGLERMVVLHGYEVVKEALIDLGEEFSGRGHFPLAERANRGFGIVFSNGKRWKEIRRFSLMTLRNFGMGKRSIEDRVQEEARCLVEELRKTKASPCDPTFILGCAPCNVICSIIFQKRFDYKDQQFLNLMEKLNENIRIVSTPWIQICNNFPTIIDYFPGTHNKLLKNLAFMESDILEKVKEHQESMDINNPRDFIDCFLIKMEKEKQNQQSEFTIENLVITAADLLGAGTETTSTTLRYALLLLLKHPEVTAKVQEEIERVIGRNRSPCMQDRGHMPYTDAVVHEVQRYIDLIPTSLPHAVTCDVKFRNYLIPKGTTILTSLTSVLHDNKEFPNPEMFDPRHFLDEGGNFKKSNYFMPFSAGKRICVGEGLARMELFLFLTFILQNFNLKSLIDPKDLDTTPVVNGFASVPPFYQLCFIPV
UniProt Q12809: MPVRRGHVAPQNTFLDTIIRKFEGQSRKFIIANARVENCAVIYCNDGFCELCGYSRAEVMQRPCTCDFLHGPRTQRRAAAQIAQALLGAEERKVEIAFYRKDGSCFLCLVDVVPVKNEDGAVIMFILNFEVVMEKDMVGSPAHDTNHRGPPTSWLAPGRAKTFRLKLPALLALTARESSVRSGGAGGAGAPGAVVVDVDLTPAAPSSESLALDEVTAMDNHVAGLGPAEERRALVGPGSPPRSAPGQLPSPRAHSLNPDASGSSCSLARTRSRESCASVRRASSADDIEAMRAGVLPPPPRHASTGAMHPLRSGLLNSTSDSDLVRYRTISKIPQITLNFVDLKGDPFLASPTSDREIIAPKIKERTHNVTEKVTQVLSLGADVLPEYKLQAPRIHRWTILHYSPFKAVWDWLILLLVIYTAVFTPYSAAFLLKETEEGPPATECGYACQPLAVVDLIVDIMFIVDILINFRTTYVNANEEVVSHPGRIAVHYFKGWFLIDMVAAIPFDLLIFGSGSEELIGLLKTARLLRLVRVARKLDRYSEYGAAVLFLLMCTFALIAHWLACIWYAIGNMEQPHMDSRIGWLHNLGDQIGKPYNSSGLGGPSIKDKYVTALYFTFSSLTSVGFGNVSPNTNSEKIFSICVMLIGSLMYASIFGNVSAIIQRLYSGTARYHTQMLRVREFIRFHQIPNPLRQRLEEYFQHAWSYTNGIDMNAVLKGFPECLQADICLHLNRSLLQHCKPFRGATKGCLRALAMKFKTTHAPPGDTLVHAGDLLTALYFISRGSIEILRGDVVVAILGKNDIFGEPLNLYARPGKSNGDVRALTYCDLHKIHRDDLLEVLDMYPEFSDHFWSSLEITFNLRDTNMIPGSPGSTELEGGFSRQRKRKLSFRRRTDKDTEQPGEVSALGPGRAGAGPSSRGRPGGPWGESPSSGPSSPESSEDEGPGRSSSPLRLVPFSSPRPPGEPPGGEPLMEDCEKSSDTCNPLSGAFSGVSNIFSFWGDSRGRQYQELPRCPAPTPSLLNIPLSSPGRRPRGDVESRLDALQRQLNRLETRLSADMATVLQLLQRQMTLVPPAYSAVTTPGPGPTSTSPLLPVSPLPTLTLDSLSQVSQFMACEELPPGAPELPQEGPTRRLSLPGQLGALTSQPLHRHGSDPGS
UniProt P10635, whole entry: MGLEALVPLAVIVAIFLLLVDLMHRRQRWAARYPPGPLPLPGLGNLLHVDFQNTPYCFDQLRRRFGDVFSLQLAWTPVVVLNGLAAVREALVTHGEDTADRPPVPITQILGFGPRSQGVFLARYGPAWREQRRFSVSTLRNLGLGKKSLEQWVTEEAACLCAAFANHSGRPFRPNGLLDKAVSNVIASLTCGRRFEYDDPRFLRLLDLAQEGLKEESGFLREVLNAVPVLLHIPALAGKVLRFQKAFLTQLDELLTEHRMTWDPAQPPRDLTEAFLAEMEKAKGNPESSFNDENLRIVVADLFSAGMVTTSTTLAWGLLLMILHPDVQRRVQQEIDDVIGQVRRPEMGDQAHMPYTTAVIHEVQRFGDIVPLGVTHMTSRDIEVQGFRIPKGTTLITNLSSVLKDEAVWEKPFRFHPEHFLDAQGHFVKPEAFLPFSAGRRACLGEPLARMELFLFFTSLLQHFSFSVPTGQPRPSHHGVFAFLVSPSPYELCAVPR

## Nc1ncc(-c2cc3ccccc3o2)c(N2CCC3(CCNC3=O)CC2)c1Cl
Physchem [1]
  solubility kinetic: 3 µM (≈ 1.19 µg/mL)
Cytochrome P450 3A4
  IC50: > 25 µM
Physchem [2]
  logD: 4.08
Cytochrome P450 2C9
  IC50: > 25 µM
Cytochrome P450 2C19
  IC50: > 25 µM
[3]
  IC50: > 25 µM
Cytochrome P450 2D6
  IC50: > 25 µM

Source: ChEMBL document CHEMBL4811251 (Eur J Med Chem, 2021)
